Laboratory results reported in patent publication US20170137473A1, “FLUOROGEN ACTIVATING AND SHIFTING TAG (FAST)” (PARIS SCIENCES ET LETTRE - QUARTIER LATIN, priority 2014, published 2017).

Assay: Cell-free protein synthesis (PURE system) followed by luminescence
Conditions: cell-free expression of mCherry-Y-FAST fusion

B1: Clone 3: best fluorescent HBR-binding PYP variant, SEQ ID NO: 3, residues 94-101 WMIPTSRG (protein)
chain: MEHVAFGSEDIENTLAKMDDGQLDGLAFGAIQLDGDGNILQYNAAEGDITGRDPKQVIGKNFFKDVAPGTDSPEFYGKFKEGVASGNLNTMFEWMIPTSRGPTKVKVHMKKALSGDSYWVFVKRV
modifications: Functional derivative of SEQ ID NO: 48 - Clone 3
time of first detection of fluorescence after initiation of protein synthesis: 10 min | time to reach saturation of fluorescence: ≤ 90 min
